Measurements from US9993570B2, “Radiolabeled tracers for poly (ADP-ribose) polymerase-1 (PARP-1), methods and uses therefor” (Washington University, priority 2014, dated 2018).
Entries after “also recorded” stand apart in the source; their conditions may differ. At least one structure is not confirmed: it was looked up by name or label, or the drawing left a doubt.

Test system: MDA-MB-436 tumors
Assay: microPET imaging with [18F]12, MDA-MB-436 xenograft tumors
Format: in vivo, mice
Settings: olaparib 50 mg/kg i.p. or 12 1 mg/kg i.p., 20 min prior to tracer
Procedure: This example illustrates the visualization of tumor tissue in microPET in mice. MDA-MB-436 human breast cancer xenograft tumors in immune-deficient mice were visualized by PET using [^18F]12.
MDA-MB-436 and MDA-MB-231 human breast cancer cells were maintained in cell culture under standard conditions with 5% CO2 atmosphere using Eagle's minimum essential medium (with Earle's balanced salt solution and 2 mM L-glutamine) supplemented with 2 mM E-glutamine, 1 mM sodium pyruvate, 0.1 mM non-essential amino acids 2% vitamins for MEM, and 5% fetal bovine serum. Cells in exponential growth were trypsinized and harvested for tumor implantation. After counting, cells were re-suspended in ice-cold 1:1 Matrigel and PBS to give the desired concentration and held on ice. […]
Tumor-bearing mice were placed in an induction chamber containing ˜2% isoflurane/oxygen and then secured to a custom double bed for placement of tail vein catheters; anesthesia was maintained via nose-cone at ˜1% isoflurane/oxygen for the dynamic imaging procedure. […] Visualization of specific uptake was determined by comparison of baseline scans with images acquired by tracer injection 20 minutes after pre-treatment with the blocking agents olaparib (50 mg/kg, IP) or 12 (1 mg/kg, IP).

O=C1NCCn2c(-c3ccc(OCCF)cc3)nc3cccc1c32 [Compound 12, 5,6-Dihydro-2-(4-(2-fluoroethoxy)phenyl)-imidazo [4,5,1-jk][1,4]benezodiazepin-7(4H)-one]
effect of pretreatment on [18F]12 uptake in MDA-MB-436 tumors: decreased [^18F]12 uptake in the tumors to the background tissue activity levels; also recorded: significantly decreased [^18F]12 uptake; also recorded: blocked
